# For at least one compound, name, drawing or mass did not settle the structure.
# System: transfusion-dependent adults with HHT (epistaxis and/or GI bleeding)
# Test: Single-center pazopanib treatment pathway for severe bleeding and transfusion-dependent anemia in HHT
compound,measurement,setting,value
Cc1ccc(Nc2nccc(N(C)c3ccc4c(C)n(C)nc4c3)n2)cc1S(N)(=O)=O [pazopanib],clinically meaningful reduction in epistaxis (ESS decrease of ≥0.71 post treatment),"at 3 months and maintained at 6, 9, and 12 months",all patients
same,patients with ferritin <40 ng/dL,"at month 6 or 12 on-treatment, baseline nine patients (69%)",none
